Consider three molecules from publication PMC3495302, “The putative K^+ channel subunit AtKCO3 forms stable dimers in Arabidopsis” (Frontiers in Plant Science, 2012).

No constants are given. Whether binding was seen depends on the method and setting. Some binding calls cover weakened binding; strength is not graded here. For some assays here: Sequences can lack the tags named with a protein.

The target of experiment [1] is AtKCO3::GFP (Arabidopsis thaliana) (UniProt Q9XFR0). Briefly: SDS-PAGE and western blot (oligomers not fully denatured); total leaf extract, samples in 1% SDS, 0.3% 2-mercaptoethanol, 95°C for 4 min; blot with anti-KCO3. A general note: In western blotting, separated proteins are transferred to a membrane and probed.
Experiment [2] shares this target. Description: velocity sucrose gradient centrifugation; as with NaCl, but leaf homogenate in 40 mM KCl and gradient with 20 mM KCl, 0.1% Triton X-100; 200,000 x g, 25 h, 4°C; fractions by SDS-PAGE and western blot.
Experiment [3] has as its target AtKCO3 (Arabidopsis thaliana) (UniProt Q9XFR0). Described as above.
Experiment [4] addresses γTIP (Arabidopsis thaliana (endogenous in leaves)) (UniProt P25818). Briefly: SDS-PAGE and western blot (oligomers not fully denatured); fractions of an isopycnic sucrose gradient of leaf microsomes; blot with anti-γTIP.
Experiment [5] shares this target. Briefly: velocity sucrose gradient centrifugation; as with NaCl, but leaf homogenate in 40 mM KCl and gradient with 20 mM KCl, 0.1% Triton X-100; 200,000 x g, 25 h, 4°C; fractions by SDS-PAGE and western blot.

B1: AtKCO3::GFP (natural protein, Arabidopsis thaliana, UniProt Q9XFR0 1-260, looked up)
chain: MPMTPSEFKNRLLFGSLPRSSSDPTDLQFTEPNVPPSLFSLPEHNDDTATDMAPDQETEQSVSKSIARQALALLVVYLSLGVLIYWLTLDSDNAYQTHPVAVALYFFVVTFCGFLIVHFVVKIGWLDSFCFSVMMVTTVGFGDRAFNTWLGTFLAAVWLLVSTLAVARAFLFLADARADKRNRERAKKVLGESISISQFFAADIDNDGRLSLAEFAIYKLKQMEKITQEDFIQICNQFDKLDRTQSGRITLVDLTTATSV
notes: AtKCO3 of Arabidopsis thaliana, locus AT5G46360; fusion of about 60 kDa; Made with pBI-35S-10H-GFP-JFH1 (Hong et al., 1999); the vector's name may mean further tag residues (surmise); source: transgenic Arabidopsis (CaMV 35S promoter, p35S-KCO3::GFP), in leaf homogenate; not shown: GFP, C-terminal, kept
In the case of B1, the binding result in experiment [1] and in experiment [2] was “binds” each time.

B2: AtKCO3 (natural protein, Arabidopsis thaliana, UniProt Q9XFR0 1-260, looked up)
chain: MPMTPSEFKNRLLFGSLPRSSSDPTDLQFTEPNVPPSLFSLPEHNDDTATDMAPDQETEQSVSKSIARQALALLVVYLSLGVLIYWLTLDSDNAYQTHPVAVALYFFVVTFCGFLIVHFVVKIGWLDSFCFSVMMVTTVGFGDRAFNTWLGTFLAAVWLLVSTLAVARAFLFLADARADKRNRERAKKVLGESISISQFFAADIDNDGRLSLAEFAIYKLKQMEKITQEDFIQICNQFDKLDRTQSGRITLVDLTTATSV
notes: AtKCO3, putative one-pore K+ channel subunit of Arabidopsis thaliana, locus AT5G46360; cDNA from seedlings of ecotype C24; calculated mass 29 kDa; The AtKCO3 cDNA without tag was put into pBinAR-Kan; also called wild-type protein; source: transgenic Arabidopsis (CaMV 35S promoter, p35S-KCO3), in leaf homogenate
Regarding B2, the binding result in experiment [3] was “binds”.

B3: γTIP (natural protein, UniProt P25818 1-251, looked up)
chain: MPIRNIAIGRPDEATRPDALKAALAEFISTLIFVVAGSGSGMAFNKLTENGATTPSGLVAAAVAHAFGLFVAVSVGANISGGHVNPAVTFGAFIGGNITLLRGILYWIAQLLGSVVACLILKFATGGLAVPAFGLSAGVGVLNAFVFEIVMTFGLVYTVYATAIDPKNGSLGTIAPIAIGFIVGANILAGGAFSGASMNPAVAFGPAVVSWTWTNHWVYWAGPLVGGGIAGLIYEVFFINTTHEQLPTTDY
notes: gamma-TIP, tonoplast aquaporin of Arabidopsis; detected with an antibody against its C-terminal nine amino acids; also called tonoplast aquaporin γTIP; source: endogenous, Arabidopsis leaf homogenate or microsomes
In the case of B3, the binding result in experiment [4] and in experiment [5] was “binds” throughout.
